Source: EPA's ToxRefDB 2

System: rat
Details: Prenatal developmental toxicity study; wistar; Oral; Feed; dose end: 15 GD; group: maternal; systemic / in life observation / body weight / body weight gain + systemic / in life observation / food consumption / food consumption

Question: With CC(C)(C)c1ccc(O)cc1 [4-tert-Butylphenol] as the compound, how does the NEL read?
Answer: The NEL was 2120 mg/kg/day.

Question: What about the NOAEL of the same compound?
Answer: The NOAEL was 2120 mg/kg/day.
